We go through 1 molecule from publication PMC7390632.

Results are given in words; binding and its absence hold for the method and conditions named. Some entries that bind do so weakly or less than the wild type. Tags and fused reporters may be left off the sequences shown.

This experiment has as its target T1, non-SUMOylated HA–KIF4A WT (SUMOylation mix without SUMO2) (human) (UniProt O95239).
T1 sequence: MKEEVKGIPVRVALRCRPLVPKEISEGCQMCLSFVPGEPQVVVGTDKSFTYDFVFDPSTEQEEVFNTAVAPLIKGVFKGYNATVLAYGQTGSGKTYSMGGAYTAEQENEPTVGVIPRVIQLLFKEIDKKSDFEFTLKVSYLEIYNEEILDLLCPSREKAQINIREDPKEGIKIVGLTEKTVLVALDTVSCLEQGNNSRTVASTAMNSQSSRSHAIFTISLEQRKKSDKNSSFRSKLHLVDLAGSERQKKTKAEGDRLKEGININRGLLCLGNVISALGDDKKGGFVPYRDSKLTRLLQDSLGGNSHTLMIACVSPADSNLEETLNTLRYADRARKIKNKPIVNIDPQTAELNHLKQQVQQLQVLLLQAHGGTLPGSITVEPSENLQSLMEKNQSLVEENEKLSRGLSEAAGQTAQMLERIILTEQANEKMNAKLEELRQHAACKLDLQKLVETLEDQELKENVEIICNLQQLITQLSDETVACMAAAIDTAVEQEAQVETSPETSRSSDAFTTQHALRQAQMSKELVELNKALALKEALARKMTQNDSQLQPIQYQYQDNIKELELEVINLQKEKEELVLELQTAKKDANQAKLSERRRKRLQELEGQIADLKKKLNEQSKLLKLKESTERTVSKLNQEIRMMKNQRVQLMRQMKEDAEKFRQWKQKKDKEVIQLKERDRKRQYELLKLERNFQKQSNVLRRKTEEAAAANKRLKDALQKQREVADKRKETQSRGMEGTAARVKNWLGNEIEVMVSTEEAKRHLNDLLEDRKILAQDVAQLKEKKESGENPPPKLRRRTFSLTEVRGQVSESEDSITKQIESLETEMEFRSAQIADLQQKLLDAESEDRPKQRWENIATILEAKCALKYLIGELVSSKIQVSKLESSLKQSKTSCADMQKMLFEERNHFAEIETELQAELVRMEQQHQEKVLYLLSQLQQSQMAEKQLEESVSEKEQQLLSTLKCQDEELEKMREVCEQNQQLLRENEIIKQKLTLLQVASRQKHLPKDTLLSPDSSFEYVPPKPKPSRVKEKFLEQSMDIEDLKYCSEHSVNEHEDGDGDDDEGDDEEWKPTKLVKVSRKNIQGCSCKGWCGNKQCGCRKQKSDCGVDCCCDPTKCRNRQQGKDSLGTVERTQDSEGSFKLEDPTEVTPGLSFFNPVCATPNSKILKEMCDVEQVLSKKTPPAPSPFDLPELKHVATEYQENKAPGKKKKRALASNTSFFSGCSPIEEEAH
As to the kind of experiment: pull-down; HA–KIF4A WT from U2OS held on anti-HA affinity gel, in vitro SUMOylated on the beads (or SUMO2 omitted), washed, incubated with 1 µg recombinant GST–STMN1 WT for 2 h at 4°C, washed in 50 mM Tris-HCl pH 7.5, 5 mM MgCl2, 150 mM NaCl, 0.5% Triton X-100, eluted with HA-peptide; immunoblot against STMN1 and the HA tag; both purified. (A western blot detects proteins with antibodies after separation by electrophoresis.)

B1: recombinant GST–STMN1 WT (protein, UniProt P16949 1-149)
chain: MASSDIQVKELEKRASGQAFELILSPRSKESVPEFPLSPPKKKDLSLEEIQKKLEAAEERRKSHEAEVLKQLAEKREHEKEVLQKAIEENNNFSKMAEEKLTHKMEANKENREAQMAAKLERLREKDKHIEEVRKNKESKDPADETEAD
B1: the binding entry is “binds”.
